Tested on: brain-derived neurotrophic factor (BDNF)
Experiment: BDNF expression in Escherichia coli-induced model mice (immunoblotting)
Format: in vivo, mouse
Conditions: E. coli model mice; donepezil 5 mg/kg

## COc1cc2c(cc1OC)C(=O)C(CC1CCN(Cc3ccccc3)CC1)C2 (stereo not shown) [Donepezil, donepezil]
  Intensity of BDNF/β-actin: 0.35
